# Measured values published in PMC6620320.
# Amino acid sequences for entries named in this document (tags omitted).
# UniProt P16790: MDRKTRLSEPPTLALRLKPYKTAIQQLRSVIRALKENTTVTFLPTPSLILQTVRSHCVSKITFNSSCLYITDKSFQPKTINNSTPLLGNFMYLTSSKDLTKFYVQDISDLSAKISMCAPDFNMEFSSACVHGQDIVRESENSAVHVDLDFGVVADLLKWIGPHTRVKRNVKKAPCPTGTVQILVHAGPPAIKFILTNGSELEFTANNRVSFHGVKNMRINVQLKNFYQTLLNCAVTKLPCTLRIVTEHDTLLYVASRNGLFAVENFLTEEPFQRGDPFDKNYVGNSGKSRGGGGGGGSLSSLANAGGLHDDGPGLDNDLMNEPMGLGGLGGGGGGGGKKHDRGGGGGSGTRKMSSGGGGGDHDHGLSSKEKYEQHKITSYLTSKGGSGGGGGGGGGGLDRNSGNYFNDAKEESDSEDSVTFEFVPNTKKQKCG
# UniProt P12956: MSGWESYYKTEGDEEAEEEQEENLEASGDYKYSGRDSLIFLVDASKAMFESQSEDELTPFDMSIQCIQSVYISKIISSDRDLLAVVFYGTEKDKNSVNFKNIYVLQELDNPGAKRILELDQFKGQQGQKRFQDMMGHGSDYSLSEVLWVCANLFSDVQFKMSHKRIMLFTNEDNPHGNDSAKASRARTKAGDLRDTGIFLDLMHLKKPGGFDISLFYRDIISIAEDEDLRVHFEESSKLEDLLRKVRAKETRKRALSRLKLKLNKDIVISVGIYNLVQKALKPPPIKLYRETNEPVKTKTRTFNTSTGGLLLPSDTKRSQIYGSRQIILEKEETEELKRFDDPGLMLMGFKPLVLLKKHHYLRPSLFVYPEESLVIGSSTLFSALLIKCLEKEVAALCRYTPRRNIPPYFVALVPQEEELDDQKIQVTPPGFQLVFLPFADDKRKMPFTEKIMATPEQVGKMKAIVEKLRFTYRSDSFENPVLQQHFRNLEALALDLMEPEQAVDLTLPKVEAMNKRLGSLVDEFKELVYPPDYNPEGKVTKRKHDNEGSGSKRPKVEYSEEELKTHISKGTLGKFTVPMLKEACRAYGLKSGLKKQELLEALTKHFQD
# No constants are given. Whether binding was seen depends on the method and setting. In cells and extracts the contact can be indirect. Some results given as binding are weak or reduced against the parent protein; the word gives no strength.
# Biological target: HCMV UL44 (human cytomegalovirus (strain RV1305)) (UniProt P16790)
# Assay: co-IP; UL44 precipitated with the human anti-UL44 IgG1 3A11 and Protein G sepharose from lysates of RV1305-infected ARPE-19 cells (uninfected cells as control); lysis buffer 50 mM HEPES pH 7.4, 1% Triton X-100, 150 mM NaCl, 10% glycerol, 0.1 mM DTT, 2 mM EDTA; lysate pre-cleared with isotype antibody; overnight at 4 °C; immunoblots for UL44, nucleolin, ku70 and pp65; interaction with nucleolin and ku70 also seen at 24 h post infection
row,Substance,binding
1,HCMV pp65 (from UniProt P06725 1-561),binds
2,ku70 (from UniProt P12956 1-609),binds
